Measurements from “University of Dundee, Small-Polar-MMV Screening Library” (2021), ChEMBL document CHEMBL3988442.

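Whole-cell growth test on Mycobacterium tuberculosis, read after 3 days in glucose-containing 7H9 medium; the read-out is not stated. Tested at 50 µM. The record gives no direction; compounds that gave an IC50 in retests scored well above the rest, so higher reads as more growth inhibition. Size under these conditions: about 69,000 compounds, about 760 of them at 50% or above in at least one test.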

Each number is a percent effect as filed. The record does not define 0% and 100%; most values in the screen are far below 50% and negative numbers occur (in some assays of this library far below -100). Compounds were drawn at random from those tested, without regard to their results. Two or more numbers in one place are separate tests of the same structure; such repeats can differ widely.

compound	effect
CC(Cn1cccn1)NCc1csc(-c2ccccc2F)n1 (centres undefined)	83.02
O=C(NC[C@@H]1CCCN1)c1cc(COc2cccc(C(F)(F)F)c2)[nH]n1	13.33 & 38.63
O=C(c1c[nH]c2ncccc12)N(Cc1ccco1)C1CCCC1	18.16
CSc1ccc(CCNC(=O)Cc2c(C)n[nH]c2C)cc1	10.58
Cc1noc(C(C)N2CCN(c3ccc(C#N)cn3)CC2)n1 (centres undefined)	-16.82
CN(C)c1ncnc2c1CCN(CC1CCCC1)CC2.O=C(O)C(F)(F)F	-23.68
CC(CNC(=O)c1cc(-n2cccn2)ccn1)Cn1ccnc1 (centres undefined)	-15.15
CCN(CCO)C[C@@H]1CN(C(=O)c2ccc(C)s2)C[C@@H]1CO	-24.11
Cc1ccc2c(c1)SCC(=O)N2Cc1noc(C2CCCO2)n1 (centres undefined)	7.59 & -14.3
Cc1cc2nc(C(C)C)cc(N3CCC(N(C)C)C3)n2n1 (centres undefined)	34.64
Cc1cc2nccc(C3CCCN(C(=O)c4ccccc4F)C3)n2n1 (centres undefined)	15.58
Cc1cc(C(=O)NCCc2cn3nc(C)sc3n2)c(C)o1	-29.19
CCN(C1CCN(C(=O)c2cccc(Cl)c2)CC1)S(C)(=O)=O	-5.69 & -3.2
CCc1noc(CN2CCOC3(CCCC3)C2)n1	14.89
CN(C)C1(CNc2ncc(Br)cn2)CCOCC1	22.68
CN(C)C(=O)C1CN(Cc2cscn2)CCN(S(C)(=O)=O)C1 (centres undefined)	24.69
CN1CCN(C2CCN(CCCOc3ccc(F)cc3)CC2)C1=O	-9.345
[H][C@]12CC[C@@]3(N=C(CC)N(CC(C)C)C3=O)[C@@]1([H])CN(C(=O)NCC(C)C)C2	13.24
O=C1CC(N(C(=O)c2ccc(F)c(C(F)(F)F)c2)C2CC2)C(=O)N1 (centres undefined)	-9.382
CCc1cc(N(C)CCCO)n2nccc2n1	9.791
O=C1C(NCc2ccccc2O)CCN1Cc1ccccc1 (centres undefined)	-16.08
Cc1cccc(CN2CC3(CCN(Cc4ccco4)CC3)OCC2=O)n1.O=C(O)C(F)(F)F.O=C(O)C(F)(F)F	-15.66
O=C(CCn1cncn1)NCCOc1cccc(Cl)c1	-13.83
O=C(O)C(F)(F)F.[H][C@]12CCN(S(=O)(=O)c3cccs3)C[C@@]1([H])OCCN(C)C2	6.754
O=C(CC1CC1)N1CCN(Cc2cccnc2)c2ncccc2C1.O=C(O)C(F)(F)F.O=C(O)C(F)(F)F	22.2
O=C1CCC2(CCN(S(=O)(=O)c3ccccc3)CC2)N1CC1CC1	-6.705
COc1cccc(C(=O)NS(=O)(=O)c2cncc(Br)c2)c1OC	2.687 & 3.419
CN(C)CC(=O)N1CCCC2(CCN(c3ccccc3)C2=O)C1.O=C(O)C(F)(F)F (centres undefined)	-23.72
O=C(c1sccc1C1CC1)N1CCN(Cc2cscn2)CC1	-26.45
[H][C@@]12C[C@@H](OCc3ccccc3)C[C@]1([H])CN(C(=O)C1CCOCC1)C2	-14.24
CN(Cc1ccccc1)CC1(O)CCCN(Cc2ccc(F)cc2)C1=O (centres undefined)	5.654
Cn1c(C(=O)N2CCC(C(N)=O)C2)c(Cl)c2ccccc21 (centres undefined)	-3.643
O=C(O)C(F)(F)F.[H][C@@]12CCN(C(=O)CC(C)C)CC[C@]1(C(=O)Nc1ccccc1)CCN2C	-26.47
[H][C@@]12OCCN(Cc3cccc(F)c3)[C@@]1([H])CC[C@@H]2OCc1ccccn1	34.88
CCN(CC)c1nc(C)cc(C(=O)Nc2cnn(CC)c2)n1	2.67
Cc1csc(CNCC(C)c2nc3ccccc3o2)n1 (centres undefined)	5.533
N#Cc1cn(C2CC2)c(=O)n(Cc2noc(-c3ccsc3)n2)c1=O	-11.95
Cc1nc(N(C)C)nc(C)c1NS(=O)(=O)c1ccc(OC(F)(F)F)cc1	21.7
CN(C)c1ccc(NC(=O)C2CN(Cc3ccccc3)CCO2)cn1 (centres undefined)	-56.69
CNC(=O)CN(C)C(=O)c1cc(Cl)c(Cl)n1C	-12.84
O=C(O)C(F)(F)F.O=C(O)C(F)(F)F.[H][C@]12CCN(C(=O)CC(C)C)CC[C@@]1([H])S(=O)(=O)CCN2Cc1cccnc1	4.655
CCC(CC)(CNC(=O)c1cccn1Cc1cccnc1)N(C)C	-20.28
COC(=O)[C@@H]1Cc2c[nH]c3cccc(c23)[C@H](CC(C)C)N1	-21 & -8.81
Cc1nc(CN(C)CC2CCCN2c2cccnn2)nc2ccccc12 (centres undefined)	64.16
CC(C)Oc1ncnc2c1CCN(C(=O)c1cccn1C)CC2	-3.677
COc1ncccc1CNC(=O)NC1CCCOc2ccccc21 (centres undefined)	-3.243
[H][C@@]12CCN(S(=O)(=O)CC)C[C@]1(c1nnc(C)o1)CCO2	25.95
Cc1ccc(NC2CCN(C(=O)c3cncnc3C)CC2)nn1	-0.4143
COC(=O)N1CCCC(NC(=O)NCc2nc(C)cs2)C1 (centres undefined)	0.2249
C[C@@H]1CN(C(=O)c2cccs2)C[C@]12CCN(CCN(C)C)C2=O.O=C(O)C(F)(F)F	-1.591
Cc1nc(C2CCCN2C(=O)c2cnns2)no1 (centres undefined)	-28.97
Cn1cc(CN2CCc3c(COCC4CC4)cncc3C2)cn1.O=C(O)C(F)(F)F.O=C(O)C(F)(F)F	-12.22 & -24.83
C=Cn1cc(CN2CCN(CC3(c4ccccc4)CC3)CC2)c(C)n1	0.04494
CCc1nc(C)cn1C(=O)Nc1ccc(F)cc1	9.015

For reference, 5 entries once more:

compound,effect
O=C(CC1CC1)N1CCN(Cc2cccnc2)c2ncccc2C1.O=C(O)C(F)(F)F.O=C(O)C(F)(F)F,22.2
CN(C)c1ncnc2c1CCN(CC1CCCC1)CC2.O=C(O)C(F)(F)F,-23.68
[H][C@@]12CCN(S(=O)(=O)CC)C[C@]1(c1nnc(C)o1)CCO2,25.95
Cn1cc(CN2CCc3c(COCC4CC4)cncc3C2)cn1.O=C(O)C(F)(F)F.O=C(O)C(F)(F)F,-12.22 & -24.83
C[C@@H]1CN(C(=O)c2cccs2)C[C@]12CCN(CCN(C)C)C2=O.O=C(O)C(F)(F)F,-1.591